Measurements as given in PubChem BioAssay AID2685 (National Center for Advancing Translational Sciences (NCATS), 2010).
The other results are listed elsewhere or left out. The main result of the screen is listed elsewhere. These columns were measured beside it and carry no call. The list favours compounds with an active or inconclusive main result. The note in brackets gives the kind of curve behind each potency; many fits are weak.

Assay: qHTS Assay for Lipid Storage Modulators in Drosophila S3 Cells;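 for cell number change: cells counted by Cell Tracker Red CMTPX staining in the red channel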
Conditions: BODIPY lipid droplet fluorescence, 18-24 h; for cell number change: measured here: cell count max response, cells fed with added oleic acid
Outline: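 Laser-scanning cytometry quantifies lipid droplet accumulation (500–530 nm total intensity; droplet/cell object ratio) in oleic acid-fed (400 uM added) Drosophila S3 cells treated with a concentration series. 20 uM Triacsin C defined 100% inhibition.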

[1] = measured here: cell number channel AC50, cells fed with added oleic acid
[2] = measured here: lipid fluorescence (Fed channel) AC50, cells fed with added oleic acid

SMILES | cell number change [%] | AC50 [1] | AC50 [2]
CCCCN1C(=O)N(c2ccccc2Cl)C(C)(O)CC1(C)C (stereo unspecified) | -27.2 | 3.66 µM [falling, full curve, poor fit] | 4.11 µM [falling, full curve, poor fit]
Cc1cccc(C)c1NC(=O)CN(C)C(=O)CSCc1c(C)noc1C | 5.3 | – | 0.206 µM [rising, full curve, poor fit]
O=C(Nc1ccc(C(=O)N2CCC(O)(c3ccc(Cl)c(C(F)(F)F)c3)CC2)cc1)c1ccc(Br)o1 | 3.96 | 6.51 µM [falling, single point] | 3.26 µM [falling, single point]
CCC1SC(CC)C(=O)N(CC(=O)NC2CCCCC2)C1=O (stereo unspecified) | 1.68 | 0.00517 µM [rising, full curve, poor fit] | –
CCOC(=O)c1c(S(=O)(=O)NCC(=O)N2CCN(c3cccc(OC)c3)CC2)c(C)n(C)c1C | 55.3 | 29.1 µM [rising, single point] | 29.1 µM [rising, single point]
Fc1ccc(N2CCN(/C=C/c3nnnn3-c3ccccc3)CC2)cc1 | – | – | 0.0058 µM [falling, full curve, poor fit]
O=C1Nc2cc(C(=O)N3CCN(c4ccccc4F)CC3)ccc2NC1CSCc1ccccc1F (stereo unspecified) | – | 2.06 µM [rising, partial curve, poor fit] | –
COc1ccc(OC(C)C(=O)Nc2ccccc2C(F)(F)F)cc1 (stereo unspecified) | -7.22 | – | 18.4 µM [rising, single point]
Cc1cccn2c(=O)nc(SCC(=O)N3CCCCCC3)nc12 | – | 2.06 µM [rising, single point] | –
CC(C)[C@H](NC(=O)N1CC(=O)Nc2ccccc21)C(=O)N[C@@H](Cc1ccccc1)C(=O)O | 2.16 | – | 1.03 µM [rising, full curve, poor fit]
S=C(c1ccccc1)N1CCN(C(=S)c2ccccc2)CC1 | 53.5 | 29.1 µM [rising, single point] | 0.058 µM [falling, full curve, poor fit]
CC(=O)NC(Cc1c[nH]c2ccccc12)C(=O)OCC(=O)N1CCCCCC1 (stereo unspecified) | -44.2 | – | –
N#C/C(=C\c1c[nH]c2ccccc12)C(=O)NC1CC1 | 1.62 | – | –
O=C(Nc1cccc(Cl)c1N1CCOCC1)c1cc([N+](=O)[O-])ccc1N1CCOCC1 | – | – | 8.2 µM [falling, single point]
CS(=O)(=O)c1ccc(Cl)c(NC(=O)CSc2nnc(-c3cccs3)n2N)c1 | 12.4 | – | 25.9 µM [rising, single point]
CC(C)CN(C(=O)CCC1CCCCC1)c1c(N)n(CC(C)C)c(=O)[nH]c1=O | 6.4 | – | 29.1 µM [rising, single point]
Cc1cc(C)cc(N(CC(=O)NCc2ccco2)C(=O)c2snc(C(N)=O)c2N)c1 | -9.59 | – | 5.17 µM [falling, single point]
Oc1[nH]c2ccccc2c1C=Nc1ccc2c(c1)OCO2 | 8.67 | 1.64 µM [rising, partial curve, poor fit] | –
CC(=O)Nc1ccc(Nc2nnc(-c3ccc(C)c(S(N)(=O)=O)c3)c3ccccc23)cc1 | 31.1 | 7.31 µM [rising, partial curve] | 20.6 µM [rising, single point]
Cc1cccc(C)c1NC(=O)CSCCO | -24.2 | – | –

SMILES | cell number change [%] | AC50 [1] | AC50 [2]
O=C1c2ccncc2C(=O)N1CNc1ccc(Cl)cc1 | -14.6 | – | 0.517 µM [falling, full curve, poor fit]
O=C(NCCc1cccc(Cl)c1)c1cccc(-n2cnnn2)c1 | -7.68 | – | 29.1 µM [falling, single point]
CCOc1ccc(CCNC(=O)COC(=O)c2ccc(OC)c(OC)c2OC)cc1OCC | -33 | – | 16.4 µM [falling, partial curve, poor fit]
CCOC(=O)C1CCCN(C/C(O)=C(\C#N)c2nc(-c3ccc(Cl)cc3)cs2)C1 (stereo unspecified) | – | 1.3 µM [rising, full curve] | –
C=CCn1c(-c2ccccc2)c[nH]c1=S | – | 4.61 µM [rising, partial curve] | 2.31 µM [rising, partial curve]
O=C1CSC(=S)N1 | 14.6 | – | –
O=C(CSc1nnc(CNC(=O)c2c(F)cccc2Cl)o1)Nc1ccccc1 | 32.8 | 0.517 µM [rising, partial curve, poor fit] | 6.51 µM [rising, single point]
CCOc1ccc2c(c1)cc(CN(C(=O)CC)C1CCCCC1)c1nnnn12 | -4.43 | – | 0.13 µM [falling, full curve, poor fit]
Nc1c(-c2cccc(Cl)c2)cnn1-c1cccc(C(F)(F)F)c1 | -0.837 | 0.651 µM [rising, single point] | 29.1 µM [falling, single point]
Cc1nc(NC(=O)CSc2nnnn2C)sc1C | 1.88 | – | 7.31 µM [rising, single point]
CCCC12CN3CC(CCC)(CN(C1)C3c1ccco1)C2=O (stereo unspecified) | -11.2 | – | –
CCc1c(C)nc(N2CCN(c3ccc(OC)cc3)CC2)[nH]c1=O | 20.7 | – | 29.1 µM [rising, single point]
O=C(NNC(=O)c1ccccc1C(=O)O)c1ccc(S(=O)(=O)N2CCCCC2)cc1 | 9.27 | – | –
CCN(CC)C(=O)/C(=C\c1cccc([N+](=O)[O-])c1)NC(=O)c1ccco1 | 2.91 | – | 23.1 µM [rising, single point]
COc1cc(OC)c(OC)cc1CN1CCN(Cc2ccc(C(F)(F)F)cc2)CC1 | -9.07 | – | 32.6 µM [falling, single point]
COc1ccc(CCC(=O)Nc2nc3c(s2)CN(C)CC3)cc1OC | 3.03 | – | –
O=[N+]([O-])c1cnc2nc(-c3ccncc3)nn2c1O | 102 | 5.8 µM [rising, full curve] | 6.51 µM [rising, partial curve, poor fit]
CS(=O)(=O)N1CCN(c2ccccc2NC(=O)Nc2cccc(Cl)c2)CC1 | -1.04 | – | 13 µM [falling, partial curve, poor fit]
N#Cc1ccc(-c2cccnc2)nc1SCC(=O)c1ccccc1 | -19 | – | 29.1 µM [falling, single point]
Cc1cc(OC(C)C(=O)N2CCN(c3ccc(F)cc3)CC2)c2c(C)cc(=O)oc2c1 (stereo unspecified) | 8.24 | – | –

SMILES | cell number change [%] | AC50 [1] | AC50 [2]
Cc1cccc(NC(=O)CSc2nccn2Cc2ccco2)c1C | 30.3 | 7.08 µM [rising, full curve, poor fit] | 17.8 µM [rising, single point]
COC(=O)c1c(NC(=O)CN2CCC(C(N)=O)CC2)c2c(C)cccc2n1C | – | 3.26 µM [falling, single point] | –
C=CCNC(=O)CSc1nnc(-c2cccs2)o1 | 13.6 | – | 13 µM [rising, partial curve, poor fit]
CCOC(=O)c1c(CN(C)C)n(C)c2ccc(OC(C)=O)cc12 | – | – | 0.184 µM [rising, full curve]
CCN(CC)C1CC(=O)N(c2cccc(Cl)c2)C1=O (stereo unspecified) | 4.99 | – | 29.1 µM [falling, single point]
N#CCC(=O)c1ccccc1Oc1ccc(Cl)cc1 | -63.1 | – | –
CCOC(=O)c1c(NC(=O)c2c(-c3ccccc3)noc2C)sc(C)c1-c1ccccc1 | – | 1.3 µM [rising, partial curve] | 0.259 µM [rising, partial curve, poor fit]
O=C(Nc1cc(C(F)(F)F)cc(C(F)(F)F)c1)c1ccc(Cn2cc(C(F)(F)F)ccc2=O)cc1 | 42.5 | – | 29.1 µM [falling, single point]
Cc1cccc(C)c1NC(=O)c1ccc(-c2ccc(Cl)cc2Cl)o1 | -11.7 | 0.00461 µM [rising, full curve, poor fit] | 0.0326 µM [rising, full curve, poor fit]
CCCCOc1ccc(C(=O)NCC(=O)N2CCN(Cc3ccc4c(c3)OCO4)CC2)cc1 | 79.7 | 18.4 µM [rising, partial curve] | 0.058 µM [falling, full curve, poor fit]
O=S(=O)(Nc1ccc2c(c1)OCCO2)c1cnc[nH]1 | -5.27 | – | 32.6 µM [falling, partial curve]
CC(=O)Nc1cccc(-c2csc(N)n2)c1 | 17.8 | – | –
Cc1ccc(C(=O)NC(=S)Nc2ccc(N3CCOCC3)cc2)c(C)c1 | -39.8 | 23.1 µM [falling, single point] | 29.1 µM [rising, single point]
O=C(CC1OC(=O)c2ccccc21)Nc1cccc(S(=O)(=O)N2CCCCCC2)c1 (stereo unspecified) | 1.95 | – | 29.1 µM [falling, single point]
COc1ccc(C/C(O)=C(\C#N)c2nc3ccccc3s2)cc1 | – | 0.092 µM [falling, full curve, poor fit] | –
NCCNC(=O)c1c(O)c2cccc3c2n(c1=O)CCC3 | 8.77 | – | 3.66 µM [falling, single point]
O=C(Nc1cccc(C(=O)O)c1)/C(=C\c1ccc(F)cc1)NC(=O)c1ccco1 | 20.5 | – | 0.103 µM [falling, partial curve, poor fit]
CCc1cc2c(-c3ccccc3)cc(=O)oc2cc1OC(=O)c1cccs1 | 2.22 | – | 4.11 µM [rising, single point]
CN1CCN(C(=O)C(Cc2ccccc2)NS(=O)(=O)c2ccc3c(c2)CCC(=O)N3)CC1 (stereo unspecified) | -0.507 | – | –

Compounds listed so far with a nitro group on carbon, in the order listed:
SMILES | cell number change [%] | AC50 [1] | AC50 [2]
O=C(Nc1cccc(Cl)c1N1CCOCC1)c1cc([N+](=O)[O-])ccc1N1CCOCC1 | – | – | 8.2 µM [falling, single point]
CCN(CC)C(=O)/C(=C\c1cccc([N+](=O)[O-])c1)NC(=O)c1ccco1 | 2.91 | – | 23.1 µM [rising, single point]
O=[N+]([O-])c1cnc2nc(-c3ccncc3)nn2c1O | 102 | 5.8 µM [rising, full curve] | 6.51 µM [rising, partial curve, poor fit]
